According to patent US20240390460A1 (Regeneron, published 2024):
Results are given in words; binding and its absence hold for the method and conditions named.

Molecular target: T1, Human IL2RG M145K (human) (UniProt P31785)
T1 sequence: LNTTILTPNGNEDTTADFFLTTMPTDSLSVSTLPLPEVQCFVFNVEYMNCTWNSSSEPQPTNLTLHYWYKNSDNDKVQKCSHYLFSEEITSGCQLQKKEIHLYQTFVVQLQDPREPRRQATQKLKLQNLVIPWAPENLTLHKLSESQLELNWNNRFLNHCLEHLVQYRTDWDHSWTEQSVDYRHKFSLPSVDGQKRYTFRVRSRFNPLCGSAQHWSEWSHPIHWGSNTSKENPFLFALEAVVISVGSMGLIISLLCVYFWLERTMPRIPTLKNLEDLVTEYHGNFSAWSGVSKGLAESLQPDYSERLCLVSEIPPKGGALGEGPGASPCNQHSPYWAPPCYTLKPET
Assay: flow cytometry on iNK cells engineered with the M145K IL2RG mutation

binding: no binding
B1: REGN7257 (antibody, human IgG4 S228P, kappa, V domains shown)
VH: EVQLVESGGGLVQPGGSLRLSCAASGFIFSSYEMHWVRQAPGKGLEWISYISSSGTTIYYADSVKGRFTISRDNAKNSLYLHMNSLRAEDTAVYYCTRARITGTFDVFDIWGQGTMVTVSS
VL: DIQMTQSPSSLSASVGDRVTITCRASQSISSYLNWYQQKPGKAPKLLIFAASNLQSGVPSRFSGSRSGTDFTLTISSLQPEDFATYYCQQNYNIPYTFGQGTKLEIKR
notes: also called H4H12889P; anti-IL2RG antibody
